Source: US20030119733A1, “Compositions and methods for inhibiting hepatocyte invasion by malarial sporozoites” (New York University, priority 1992, published 2003)
Some entries share one result that the patent states for a list of compounds.

Test: Clearance studies of 125I-labeled proteins
Assay type: in vivo, mouse
Details: monomeric fraction of CS27IVC, or Falc-1; at any time
Protocol: Clearance Studies: Mice were anesthetized with ether, and injected with 10^5 cpm of ^125I-labeled CS27IVC or Falc-1 via the periorbital sinus. At two, five and fifteen minutes after injection, the mice were exsanguinated, the organs removed, rinsed in TBS, blotted dry on filter paper, and counted for radioactivity. To estimate the amounts of blood contaminating the various organs, we repeated the same procedure in mice injected with 100 μl (1.5×10^5 cpm) of ^51Cr-labeled RBC. The mean volumes of blood in the liver, spleen and kidney of the exsanguinated animals were 75, 24, and 35 μl respectively. In all other organs, the amount of blood was negligible, i.e., less than 15 μl. The percent of injected dose of CS which was retained in the various organs was calculated as described as follows: [formula]
Radiolabeled Falc-1 (FIG. 30B), and the aggregated (FIG. 30C) and monomeric (FIG. 30A) fractions of radiolabeled CS27IVC proteins were injected intravenously into the retroorbital sinuses of mice. The animals were sacrificed 2, 5 and 15 minutes later, and the amounts of CS in the blood and in various organs were measured. Additionally, the radioactivity associated with the various organs was calculated. […]

B1: Falciparum-1: Same as Falciparum-2 minus most of Region II+ (P. falciparum residues 43-348) (protein)
chain: AGTNLYNELEMNYYGKQENWYSLKKNSRSLGENDDGNNNNGDNGREGKDEDKRDGNNEDNEKLRKPKHKKLKQPGDGNPDPNANPNVDPNANPNVDPNANPNVDPNANPNANPNANPNANPNANPNANPNANPNANPNANPNANPNANPNANPNANPNANPNANPNVDPNANPNANPNANPNANPNANPNANPNANPNANPNANPNANPNANPNANPNANPNANPNANPNANPNANPNANPNANPNKNNQGNGQGHNMPNDPNRNVDENANANNAVKNNNNEEPSDKHIEQYLKKIKNSISTEWSP
Question: With B1 as the molecule, how does the “injected counts associated with the liver” value read?
Answer: The value was no more than 4%.
